Test results reported in PubChem BioAssay AID540303 (National Center for Advancing Translational Sciences (NCATS), 2011).
The campaign covered roughly 330,000 compounds. About 1,000 (0.3%) were called active. The inconclusive results got no clear call from the source; some entries with a clear call stand among them for comparison. Calls follow the shape of the dose curve; as a rule, active = well fitted inhibition curve with a large enough effect; inconclusive = small, poorly fitted or top-dose-only effect; inactive = no such curve, though single readings can be large or run the other way; tested in mouse RAW 264.7 cells. A potency beside an inconclusive call is a rough fit, not a confirmed value.

Assay: qHTS for Inhibitors of Cell Surface uPA Generation; also: nearly all actives have a fitted effect of over 55% in size
Conditions: cell surface uPA generation assay; series mostly up to 38.3 µM
How it was run: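 RAW 264.7 cells, 4000/well, given compound (1:5 dilutions, up to 38.3 uM final) and incubated 24 h at 37 C. Blocked uPA-dependent LF entry keeps ATP high; ATPlite luminescence read, 5 s exposure.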
Potency is read from the fitted curve at half-maximal effect.

Structure (SMILES) | Potency
CN(Cc1cnn(Cc2ccccc2)c1)C(=O)c1cccc(S(=O)(=O)N2CCOCC2)c1 | active: 6.31 µM
COc1cc(C(=O)Nc2ccc3c(c2)ncn3C)cc(OC)c1OC | inconclusive: 3.16 µM [inhibitor, full curve, poor fit]
C=C(C)COc1ccc(-c2nc(N)ncc2-c2ccc(Br)cc2)c(O)c1 | inactive
CN(C)S(=O)(=O)N1CCC(Oc2ccc(C(=O)NC3Cc4ccccc4C3)cc2)CC1 | inconclusive: 28.2 µM [inhibitor, single point]
CCOc1cccc(C=Nc2cc(C)cc(C)c2O)c1O | inconclusive: 11.2 µM [inhibitor, single point]
Cc1ccc(C(=O)CNc2ccc(Cl)cc2)cc1 | inactive
CCOC(=O)c1cccc(NC(=O)Nc2ccc(OCC)cc2)c1 | inconclusive: 11.2 µM [inhibitor, single point]
Cc1ccc(-c2c[n+]3c(n2-c2ccccc2)SCC3)cc1 | inconclusive: 3.55 µM [inhibitor, partial curve, poor fit]
CCOc1cc(N2CCOCC2)c(OCC)cc1NC(=O)COC(=O)C1CCCN1S(=O)(=O)c1ccccc1F (stereo not drawn) | inconclusive: 10 µM [inhibitor, partial curve]
CN(C)C(=S)N=Nc1[nH]c2ccccc2c1O | inconclusive: 31.6 µM [inhibitor, partial curve, poor fit]
COc1ccc(CCNC(=O)c2cc3c(=O)n4ccccc4nc3n(CCCN3CCOCC3)c2=N)cc1 | inconclusive: 10 µM [inhibitor, partial curve, poor fit]
COc1ccc2c(c1)CCc1cc(C(=O)N3CCN(c4ccc(N5CCOCC5)nn4)CC3)sc1-2 | inconclusive: 22.4 µM [inhibitor, single point]
CN(C)c1ccnc(Oc2ccc(C(C)(C)C)cc2)c1C#N | inconclusive: 6.31 µM [inhibitor, single point]
CCOC(=O)C1(Cc2ccccc2C(F)(F)F)CCN(C2CCN(C(C)C)CC2)CC1 | inconclusive: 1.78 µM [inhibitor, full curve, poor fit]
C=CCc1cccc(/C=N/NC(=O)c2ccc3nc[nH]c3c2)c1O | inconclusive: 12.6 µM [inhibitor, partial curve, poor fit]
O=C(c1ccco1)N1CCN(S(=O)(=O)c2cccc(Cl)c2)CC1 | inactive
O=C(NNc1c2ccccc2nc2ccccc12)c1ccc(O)cc1 | inconclusive: 12.6 µM [inhibitor, single point]
Cc1ccccc1N1C(S)=C(C#N)C(=O)NC12CCCCC2 | inactive
O=C1CN(C(=O)COC(=O)c2ccc(Cl)c(S(=O)(=O)N3CCCCC3)c2)c2ccccc2N1 | inconclusive: 0.708 µM [inhibitor, full curve, poor fit]
Clc1nn2cnnc2c2ccccc12 | inconclusive: 10 µM [inhibitor, partial curve, poor fit]
CS(=O)(=O)N1CCN(c2nnc(-c3ccccc3)c3ccccc23)CC1 | inactive
O=C(NCc1ccco1)C1CC(c2cc(C(F)(F)F)cc(C(F)(F)F)c2)=NO1 (stereo not drawn) | inconclusive: 0.708 µM [inhibitor, full curve, poor fit]
COc1ccc(-c2c(C#Cc3ccsc3)c3ccccc3n2C)cc1 | inconclusive: 5.62 µM [inhibitor, partial curve, poor fit]

Molecules shown so far containing a furan ring, fused or not, in the order listed:
Structure (SMILES) | Potency
O=C(c1ccco1)N1CCN(S(=O)(=O)c2cccc(Cl)c2)CC1 | inactive
O=C(NCc1ccco1)C1CC(c2cc(C(F)(F)F)cc(C(F)(F)F)c2)=NO1 (stereo not drawn) | inconclusive: 0.708 µM [inhibitor, full curve, poor fit]

2 of the compounds above, with tabs:
Structure (SMILES)	Potency
CCOc1cccc(C=Nc2cc(C)cc(C)c2O)c1O	inconclusive: 11.2 µM [inhibitor, single point]
C=CCc1cccc(/C=N/NC(=O)c2ccc3nc[nH]c3c2)c1O	inconclusive: 12.6 µM [inhibitor, partial curve, poor fit]

(continued)

Structure (SMILES) | Potency
CC(=NC1CCCCC1)C1=C(O)c2ccccc2C1=O | inconclusive: 11.2 µM [inhibitor, single point]
Cc1ccc(C(=O)NCCc2csc(-c3cccnc3)n2)cc1 | inconclusive: 5.01 µM [inhibitor, partial curve, poor fit]
CCOC(=O)c1nnn(CC(=O)N2N=C(c3ccccc3)CC2c2ccccc2)c1C(=O)OCC (stereo not drawn) | inactive
CC1CCc2c(C(=O)Nc3nccs3)csc2C1 (stereo not drawn) | inactive
CCc1ccccc1N1CSC2=C(C#N)C(c3ccccc3F)CC(=O)N2C1 (stereo not drawn) | inconclusive: 3.98 µM [inhibitor, partial curve, poor fit]
O=C(CSc1nnc2ccccn12)c1ccc2c(c1)OCCO2 | inactive
CCOc1ccc2c(c1)C(C)=CC(C)(C)N2S(=O)(=O)c1ccc(NC(C)=O)cc1 | inconclusive: 0.501 µM [inhibitor, full curve, poor fit]
CC(NC(=O)C(=O)N1CCOCC1)C(c1cccs1)N1CCN(c2ccccc2F)CC1 (stereo not drawn) | inactive
Cc1csc(Nc2ccccc2C(F)(F)F)n1 | inactive
COCCCNC(=O)c1cccc(S(=O)(=O)N2CC3(C)CC2CC(C)(C)C3)c1 (stereo not drawn) | active: 6.31 µM
CCCCN(C)C(=O)c1cc2cc3cc(OC)ccc3nc2o1 | inconclusive: 2.51 µM [inhibitor, partial curve, poor fit]
CCOC(=O)N1CCC(NC(=O)c2ccc3c(Cl)c4c(nc3c2)CCCC4)CC1 | inconclusive: 1.26 µM [inhibitor, full curve, poor fit]
CC(=O)c1ccc(OC(=O)Cc2cccc3ccccc23)cc1 | inconclusive: 10 µM [inhibitor, partial curve, poor fit]
O=C(NNc1ccc([N+](=O)[O-])cc1)Nc1ccccc1 | inconclusive: 12.6 µM [inhibitor, single point]
O=C(NN1CCOCC1)c1ccco1 | inactive
O=S1(=O)c2ccc(Br)cc2N2CCC[C@@H]2CN1C1CC1 | inconclusive: 0.282 µM [inhibitor, full curve, poor fit]
O=S(=O)(c1ccc(OCC2CO2)cc1)c1ccc(OCC2CO2)cc1 (stereo not drawn) | active: 5.62 µM
COc1cccc(CNC(=O)c2nnn(CC(=O)Nc3ccc(C)c(C)c3)c2N)c1 | inactive
O=[N+]([O-])c1ccc(CSc2ccc(S(=O)(=O)N3CCCC3)cn2)cc1 | inconclusive: 0.282 µM [inhibitor, full curve, poor fit]
CC1=CC2=NC(=O)/C(=C/c3cccn3Cc3ccccc3)C(=N)N2O1 | inactive
Cc1cccc(C(=O)n2c(=S)nc3ccccn32)c1 | inactive
O=C1C2C(c3ccccc3)CC=CC2[C@H](c2ccc(C(F)(F)F)cc2)N1Cc1ccccc1 (stereo partly drawn) | inconclusive: 8.91 µM [inhibitor, single point]
CCN(CC)c1ccc(/C=N/NC(=O)c2ccco2)c(O)c1 | inconclusive: 2.24 µM [inhibitor, partial curve, poor fit]

Structure (SMILES) | Potency
CC[C@]1(C(=O)OC)[C@H]2C(=O)N(C)C(=O)[C@H]2[C@H]2CN=C(SC)N21 | inactive
O=C(Cn1c(C(F)(F)F)nc2ccccc21)Oc1cccc(C(F)(F)F)c1 | inactive
CN(C)S(=O)(=O)n1cc(/C=C(\NC(=O)c2ccccc2)C(=O)N2CCCC2)c2ccccc21 | inconclusive: 10 µM [inhibitor, single point]
C[C@H]1CN([C@@H](C)CO)C(=O)c2cccc(NC(=O)Nc3ccc(C(F)(F)F)cc3)c2O[C@@H]1CN(C)S(=O)(=O)c1ccccc1 | inconclusive: 12.6 µM [inhibitor, partial curve, poor fit]
CC(C)(C)C(=O)Cn1ncc(Cl)c(Cl)c1=O | inconclusive: 12.6 µM [inhibitor, partial curve, poor fit]
COc1cc(CCNC(=O)c2cnn3ccccc23)cc(OC)c1OC | inconclusive: 6.31 µM [inhibitor, partial curve, poor fit]
COc1cc2cc(C(=O)N/N=C/c3ccc(F)cc3)[nH]c2cc1OC | inconclusive: 2.82 µM [inhibitor, single point]
CCOc1ccc(NC(=O)COC(=O)C2CCC(=O)N2)c([N+](=O)[O-])c1 (stereo not drawn) | inconclusive: 0.282 µM [inhibitor, full curve, poor fit]
Cn1cc(S(=O)(=O)c2ccccc2)c(=O)c2cc(Cl)ccc21 | inactive
Cc1ccc2c(c1)c1c(n2CC(O)Cn2c(C)nc3ccccc32)/C(=N\O)CCC1 (stereo not drawn) | inactive
Cc1ccc(C)c(N2N=C(C(=O)N(CC(C)C)c3c(N)n(Cc4ccccc4)c(=O)[nH]c3=O)CCC2=O)c1 | inactive
CC1=NN(c2ccccc2)C(=O)/C1=C\c1cc(C)n(-c2ccccc2)c1C | inactive
CCOc1cc(/C=N/NC(N)=S)cc(Br)c1OCc1ccccc1C | inactive
CN(C)c1ccc(C#Cc2ccc3cc(CCO)oc(=O)c3c2)cc1 | inconclusive: 2.82 µM [inhibitor, partial curve]
CN(CC(=O)Nc1ccccc1C(F)(F)F)C(=O)c1ccc(N2C(=O)CCC2=O)cc1 | inactive
CC(C)N(Cc1ccccc1)C(=O)CN1c2cccc3cccc(c23)S1(=O)=O | inactive
CCC(C)[C@H]1CN=C(N)N1CC1CCCCC1 (stereo partly drawn) | inconclusive: 6.31 µM [inhibitor, partial curve, poor fit]
OC(Cc1cccnc1)(Cc1cccnc1)c1cc2ccccc2[nH]1 | inactive
CCN(CC)S(=O)(=O)c1cccc(NC(=O)CNc2cccc(S(=O)(=O)N3CCCC3)c2)c1 | inconclusive: 2.82 µM [inhibitor, partial curve]
[O-]/C(=C(\C(=S)Nc1cccc2ccccc12)[n+]1cccc(CO)c1)c1ccc(Cl)s1 | inconclusive: 12.6 µM [inhibitor, single point]
CC1(c2nnc(-c3ccccc3)o2)CC(c2ccc([N+](=O)[O-])cc2)=NO1 (stereo not drawn) | inconclusive: 3.98 µM [inhibitor, partial curve, poor fit]
O=C1CCCc2cc3c(cc21)CC1(C3)Cc2cc3c(cc2C1)C(=O)CCC3 | inconclusive: 3.16 µM [inhibitor, single point]
